Assay results from US20030199514A1, “Methods for improving efficacy of treatment with growth hormone secretagogues” (priority 2002, published 2003).

Tested on: urinary nitrogen excretion
Assay: Phase I double-blind, placebo-controlled, multiple dose evaluation of test compound in calorically restricted, obese men and women
Format: in vivo, human
Procedure: Phase I Double-Blind, Placebo-Controlled, Multiple Dose Evaluation of Test Compound in Calorically Restricted, Obese Men and Women
A total of 48 obese subjects, with a negative exercise tolerance test and without significant other medical problems, were recruited for this study and placed on a caloric-restricted diet. Subjects were randomized to either placebo, 3 mg po tid, 6 mg po tid or 10 mg po qam of the test compound, 2-amino-N-[2-(3a-(R)-benzyl-2-methyl-3-oxo-2,3,3a,4,6,7-hexahydro-pyrazolo[4,3-c]pyridin-5-yl)-1-(R)-benzyloxymethyl-2-oxo-ethyl]-isobutyramide, L-tartrate, for a total of seven days.
The primary efficacy outcome variable of this study was urinary nitrogen excretion. Breakdown of protein (protein catabolism) may be measured by urinary nitrogen excretion. The covariates determined in this study included: 1.) gender; 2.) serum total and free testosterone; and 3.) serum total and free estradiol.

## CN1N=C2CCN(C(=O)[C@@H](COCc3ccccc3)NC(=O)C(C)(C)N)C[C@@]2(Cc2ccccc2)C1=O.O=C(O)C(O)C(O)C(=O)O [test compound, 2-amino-N-[2-(3a-(R)-benzyl-2-methyl-3-oxo-2,3,3a,4,6,7-hexahydro-pyrazolo[4,3-c]pyridin-5-yl)-1-(R)-benzyloxymethyl-2-oxo-ethyl]-isobutyramide, L-tartrate]
Among men
  correlation of serum free testosterone with urinary nitrogen excretion (anabolic response to test compound): significantly (although weakly) negatively correlated
In women
  correlation of serum free testosterone with urinary nitrogen excretion (anabolic response to test compound): even stronger negative correlation
